# According to the supplement of paper PMC4604168 (melanoma cell lines):
# The other results are listed elsewhere or left out. Many values rest on one well or one pass, so single values are uncertain.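 The apoptosis fraction was the count of cleaved-PARP antibody-stained nuclei relative to all DNA-stained nuclei, imaged in 1,536-well plates. Screening doses were set so most cells survived, and baseline and induced cleaved-PARP levels vary greatly across cell lines.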
# How the values were obtained:
# Test in all cases: cleaved PARP positive nuclei fraction relative to DMSO control; melanoma cells; higher = more apoptosis
# Conditions in all cases: library dose: low library concentration; 72 h
# WM115 = system: WM115
# WM1716 = system: WM1716
# WM1745 = system: WM1745
# WM3526 = system: WM3526
# WM3619 = system: WM3619
# WM451Lu = system: WM451Lu
SMILES,cleaved PARP positive nuclei fraction (WM115) [%],cleaved PARP positive nuclei fraction (WM1716) [%],cleaved PARP positive nuclei fraction (WM1745) [%],cleaved PARP positive nuclei fraction (WM3526) [%],cleaved PARP positive nuclei fraction (WM3619) [%],cleaved PARP positive nuclei fraction (WM451Lu) [%]
"CC1(C)CCC(c2ccc(Cl)cc2)=C(CN2CCN(c3ccc(C(=O)NS(=O)(=O)c4ccc(N[C@H](CCN5CCOCC5)CSc5ccccc5)c(S(=O)(=O)C(F)(F)F)c4)cc3)CC2)C1 + CC(=O)c1c(C)c2cnc(Nc3ccc(N4CCNCC4)cn3)nc2n(C2CCCC2)c1=O [palbociclib] (first compound 0.4 µM, partner dose 0.04 µM)",233,75.2,511,54.9,139,59.2
"CC1(C)CCC(c2ccc(Cl)cc2)=C(CN2CCN(c3ccc(C(=O)NS(=O)(=O)c4ccc(N[C@H](CCN5CCOCC5)CSc5ccccc5)c(S(=O)(=O)C(F)(F)F)c4)cc3)CC2)C1 + C[C@@H](N)c1ccc(C(=O)Nc2ccnc3[nH]ccc23)cc1 [RKI983] (first compound 0.4 µM, partner dose 0.4 µM)",314,3970,853,115,106,168
"NC1(c2ccc(-c3nc4ccn5c(=O)[nH]nc5c4cc3-c3ccccc3)cc2)CCC1 + COc1ccc(-c2ccc3c(N4CCOCC4)nc(N4C[C@@H](C)O[C@@H](C)C4)nc3n2)cc1CO [KU0063794] (first compound 0.4 µM, partner dose 0.02 µM)",268,109,103,111,124,134
"Cn1sc(=O)n(Cc2ccccc2)c1=O + Cn1cc(/C=C2\C(=O)Nc3cccnc32)c2ccccc21 [GW441756] (first compound 0.4 µM, partner dose 0.4 µM)",58.2,243,75.5,435,100,28
"CC(=O)O[C@@]12CO[C@@H]1C[C@H](O)[C@@]1(C)C(=O)[C@H](O)C3=C(C)[C@@H](OC(=O)[C@H](O)[C@@H](NC(=O)OC(C)(C)C)c4ccccc4)C[C@@](O)([C@@H](OC(=O)c4ccccc4)[C@H]21)C3(C)C [Docetaxel] + NCC(=O)Nc1ccc(-n2nc(C(F)(F)F)cc2-c2ccc3c(ccc4ccccc43)c2)cc1 [OSU03012] (first compound 0.0001 µM, partner dose 1 µM)",174,210,150,122,136,270
"CCCCCCCCc1ccc(CCC(N)(CO)CO)cc1 [fingolimod] + C[C@]1(c2nc3c(C(N)=O)cccc3[nH]2)CCCN1 [Veliparib] (first compound 2 µM, partner dose 1.4 µM)",174,50,124,182,107,24.8
"CC1(C)CCC(c2ccc(Cl)cc2)=C(CN2CCN(c3ccc(C(=O)NS(=O)(=O)c4ccc(N[C@H](CCN5CCOCC5)CSc5ccccc5)c(S(=O)(=O)C(F)(F)F)c4)cc3)CC2)C1 + CC(C)CCN1c2nc(Nc3cc(F)c(O)c(F)c3)ncc2N(C)C(=O)C1C [BID1870] (first compound 0.4 µM, partner dose 0.2 µM)",412,773,250,102,295,78.3
"Cn1cnc2c(F)c(Nc3ccc(Br)cc3Cl)c(C(=O)NOCCO)cc21 [selumetinib] + COC(=O)c1sccc1S(=O)(=O)Nc1ccc(Nc2ccccc2)cc1OC [GSK0660] (first compound 0.015 µM, partner dose 1 µM)",167,107,84.2,106,163,74.1
"COc1ccc(C2=N[C@@H](c3ccc(Cl)cc3)[C@@H](c3ccc(Cl)cc3)N2C(=O)N2CCNC(=O)C2)c(OC(C)C)c1 [Nutlin-3] + O=C(O)[C@@H]1[O][Sb](=[O])([O][Sb]2(=[O])[O][C@H]([C@H](O)CO)[C@H](O)[C@H](C(=O)O)[O]2)[O][C@H]([C@H](O)CO)[C@@H]1O [stibogluconate] (first compound 0.1 µM, partner dose 2 µM)",172,79.4,98.4,17.3,222,152
"CCN(CC)CCNC(=O)c1c(C)[nH]c(/C=C2\C(=O)Nc3ccc(F)cc32)c1C [sunitinib] + C=CCn1c(=O)c2cnc(Nc3ccc(N4CCN(C)CC4)cc3)nc2n1-c1cccc(C(C)(C)O)n1 [MK1775] (first compound 0.4 µM, partner dose 0.02 µM)",112,64.2,114,156,95.7,56.9
"CS(=O)(=O)c1ccc(C(=O)Nc2ccc(Cl)c(-c3ccccn3)c2)c(Cl)c1 [vismodegib] + CNC(=O)c1cc(Oc2ccc(NC(=O)Nc3ccc(Cl)c(C(F)(F)F)c3)cc2)ccn1 [sorafenib] (first compound 1 µM, partner dose 0.4 µM)",169,80.5,112,50.9,81.2,35.8
"CC1(C)CCC(c2ccc(Cl)cc2)=C(CN2CCN(c3ccc(C(=O)NS(=O)(=O)c4ccc(N[C@H](CCN5CCOCC5)CSc5ccccc5)c(S(=O)(=O)C(F)(F)F)c4)cc3)CC2)C1 + C[C@@H](Oc1cc(-c2cnn(C3CCNCC3)c2)cnc1N)c1c(Cl)ccc(F)c1Cl [Crizotinib] (first compound 0.4 µM, partner dose 0.2 µM)",493,37.9,996,52.4,86.4,97.6
"Cn1cnc2c(F)c(Nc3ccc(Br)cc3Cl)c(C(=O)NOCCO)cc21 [selumetinib] + Cn1c(Nc2ccc(C(F)(F)F)cc2)nc2cc(Oc3ccnc(-c4ncc(C(F)(F)F)[nH]4)c3)ccc21 [CHIR265] (first compound 0.015 µM, partner dose 0.08 µM)",1080,85.6,131,165,251,113
"NC1(c2ccc(-c3nc4ccn5c(=O)[nH]nc5c4cc3-c3ccccc3)cc2)CCC1 + Cc1ccc(NC(=O)c2cccc(N(C)C)c2)cc1NC(=O)c1ccc(O)cc1 [ZM336372] (first compound 0.4 µM, partner dose 2 µM)",128,224,95.7,134,92.6,55.6
"CCN(CC)CCNC(=O)c1c(C)[nH]c(/C=C2\C(=O)Nc3ccc(F)cc32)c1C [sunitinib] + O=C(Nc1cccc(Cl)c1)Nc1ncc(CCNc2ncnc3ccsc23)s1 [SNS314] (first compound 0.4 µM, partner dose 0.0008 µM)",302,41.8,108,64.1,63,231
"Cn1sc(=O)n(Cc2ccccc2)c1=O + CCCCCCCCc1ccc(CCC(N)(CO)CO)cc1 [fingolimod] (first compound 0.4 µM, partner dose 2 µM)",242,479,99,44.5,98.1,85.1
"NC(=O)c1ccc(N(C(N)=O)c2c(F)cccc2F)nc1-c1ccc(F)cc1F + COc1ccc(-c2ccc3c(N4CCOCC4)nc(N4C[C@@H](C)O[C@@H](C)C4)nc3n2)cc1CO [KU0063794] (first compound 0.4 µM, partner dose 0.02 µM)",112,50.6,98.1,52.7,98,22.4
"Cn1sc(=O)n(Cc2ccccc2)c1=O + CN(NC(=O)CC(=O)NN(C)C(=S)c1ccccc1)C(=S)c1ccccc1 [STA4783] (first compound 0.4 µM, partner dose 0.006 µM)",157,180,291,67.4,143,267
"CCCCCCCCc1ccc(CCC(N)(CO)CO)cc1 [fingolimod] + O=C(O)[C@@H]1[O][Sb](=[O])([O][Sb]2(=[O])[O][C@H]([C@H](O)CO)[C@H](O)[C@H](C(=O)O)[O]2)[O][C@H]([C@H](O)CO)[C@@H]1O [stibogluconate] (first compound 2 µM, partner dose 2 µM)",122,38.7,95.4,294,72.4,103
"Cn1sc(=O)n(Cc2ccccc2)c1=O + OCCn1cc(-c2cnc3nnn(Cc4ccc5ncccc5c4)c3n2)cn1 [PF04217903] (first compound 0.4 µM, partner dose 1 µM)",127,124,86,47.9,80.9,63.9
"CCCCCCCCc1ccc(CCC(N)(CO)CO)cc1 [fingolimod] + Nc1nc(F)nc2c1ncn2[C@@H]1O[C@H](CO)[C@@H](O)[C@@H]1O [fludarabine] (first compound 2 µM, partner dose 0.2 µM)",118,1190,131,188,95.2,103
"Cn1cnc2c(F)c(Nc3ccc(Br)cc3Cl)c(C(=O)NOCCO)cc21 [selumetinib] + CCCS(=O)(=O)Nc1ccc(F)c(C(=O)c2c[nH]c3ncc(Cl)cc23)c1F [PLX4720] (first compound 0.015 µM, partner dose 0.08 µM)",128,84.5,97.7,67.3,92.4,30.8
"Cn1sc(=O)n(Cc2ccccc2)c1=O + O=C(O)[C@@H]1[O][Sb](=[O])([O][Sb]2(=[O])[O][C@H]([C@H](O)CO)[C@H](O)[C@H](C(=O)O)[O]2)[O][C@H]([C@H](O)CO)[C@@H]1O [stibogluconate] (first compound 0.4 µM, partner dose 2 µM)",71.2,22.2,89.9,239,102,92
"CCN(CC)CCNC(=O)c1c(C)[nH]c(/C=C2\C(=O)Nc3ccc(F)cc32)c1C [sunitinib] + CCCCCCCCc1ccc(CCC(N)(CO)CO)cc1 [fingolimod] (first compound 0.4 µM, partner dose 2 µM)",145,57.8,153,133,92.1,42.7
"CC(=O)O[C@@]12CO[C@@H]1C[C@H](O)[C@@]1(C)C(=O)[C@H](O)C3=C(C)[C@@H](OC(=O)[C@H](O)[C@@H](NC(=O)OC(C)(C)C)c4ccccc4)C[C@@](O)([C@@H](OC(=O)c4ccccc4)[C@H]21)C3(C)C [Docetaxel] + COc1cc2c(Oc3ccc4[nH]c(C)cc4c3F)ncnc2cc1OCCCN1CCCC1 [cediranib] (first compound 0.0001 µM, partner dose 0.4 µM)",300,599,191,540,147,198

# Part of the list above with just cleaved PARP positive nuclei fraction (WM115) [%] and cleaved PARP positive nuclei fraction (WM1716) [%]:
SMILES	cleaved PARP positive nuclei fraction (WM115) [%]	cleaved PARP positive nuclei fraction (WM1716) [%]
Cn1sc(=O)n(Cc2ccccc2)c1=O + OCCn1cc(-c2cnc3nnn(Cc4ccc5ncccc5c4)c3n2)cn1 [PF04217903] (first compound 0.4 µM, partner dose 1 µM)	127	124
CCCCCCCCc1ccc(CCC(N)(CO)CO)cc1 [fingolimod] + Nc1nc(F)nc2c1ncn2[C@@H]1O[C@H](CO)[C@@H](O)[C@@H]1O [fludarabine] (first compound 2 µM, partner dose 0.2 µM)	118	1190
